# Among all 410,000 compounds or so, about 18,000 (4.4%) were called active. The shares of active, inactive and inconclusive entries below differ from those in the screen. Cut-off read from the data, not from the text of the source: active = activity change below about -60%; inconclusive = no clear call, values can overlap the other calls; inactive = above about -39%.
# Assay: qHTS Assay for inhibitors of the human cytomegalovirus (HCMV)
# Conditions: HFF cells, HCMV-luciferase reporter, 72 h; at 57.5 µM; active compounds read low
# Outline: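 Compounds were evaluated in HFFs infected with an HCMV luciferase reporter virus (MOI 1 PFU/cell). Luciferase in lysates collected 72 h post infection served as the replication measure.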
# % is set by controls: 0 for no effect and ±100 for the full control effect.
row,Compound,"activity change, negative = inhibition"
1,CCc1noc(C)c1C(=O)N(CC)CC(=O)NCc1ccc(Cl)cc1,inconclusive: 0%
2,COc1ccc(Cl)cc1N(CC(=O)NC(C)(C)C)S(=O)(=O)c1ccc(C)c([N+](=O)[O-])c1,active: -76.3%
3,COc1cc(OC)cc(C(=O)NCc2cc(C)nc3ccccc23)c1,inconclusive: -45.2%
4,CN(C(=O)COC(=O)CN1C(=O)c2cccc([N+](=O)[O-])c2C1=O)c1ccccc1,inactive: 27.6%
5,CCOc1ccc(/C=C/C(=O)NC2CCCCC2)cc1,inactive: 73.4%
6,COc1ccc2oc(C(=O)N3CCN(S(=O)(=O)c4cccc([N+](=O)[O-])c4)CC3)c(C)c2c1,active: -67.1%
7,CC(=O)C1CCC2C3CCC4CC(O)CCC4(C)C3CCC12C (stereo not given),inactive: -4.04%
8,Cc1ccc(-c2nc(NC(=O)c3cc(C(C)(C)C)nn3C)sc2C)cc1Cl,active: -61.3%
9,CCn1c(=S)[nH]c2scc(-c3cccs3)c2c1=O,active: -63.2%
10,COc1ccc(Cl)cc1NC(=S)NCCSc1ccc(C)cc1,inconclusive: -50.9%
11,COc1cc2ccccc2cc1C(=O)NNC(=O)c1ccccc1O,active: -90.7%
12,Cc1c(Cl)cccc1NC(=O)Nc1ccccc1C(N)=O,inconclusive: -50.2%
13,Cc1ccc2cc(CCNC(=O)c3ccc(S(=O)(=O)N4CCOCC4)cc3)c(=O)[nH]c2c1,inactive: -23.9%
14,Cc1ccc(C(=O)N(CCN(C)C)CC2CCCN(Cc3ccccc3F)C2)cc1C (stereo not given),inconclusive: -40.3%
15,O=C(Nc1ccc(Oc2cccc(C(F)(F)F)c2)nc1)c1cccs1,active: -60.9%
16,Cc1cccc(-c2nc(Nc3cccc(O)c3)c3ccccc3n2)c1,inconclusive: -45.6%
17,COC(=O)c1c(NC(=O)CSc2nnc(-c3ccco3)n2C)sc(C)c1C,inactive: -0.371%
18,CCN1CCN(C(=O)COc2ccc(S(=O)(=O)Nc3ccc(Cl)cc3)cc2)CC1,inconclusive: -50.7%
19,CN(Cc1ccccc1)S(=O)(=O)c1ccc(N2CCOCC2)nc1,inactive: 11.6%
20,COc1cccc(NS(=O)(=O)c2ccc3[nH]cc(C(=O)NC4CCCCC4)c(=O)c3c2)c1,inconclusive: -41%
21,CC(=O)N1CCN(c2ccc(NCc3cccc4ccccc34)cc2)CC1,inconclusive: -42.2%
22,O=C(CN1C2=NCCN2c2ccccc21)c1ccc(Br)s1,inconclusive: -45.9%
23,CC(C)(C)c1ccc(-c2noc(CCC(=O)NCc3ccco3)n2)cc1,active: -81.2%
24,Cc1ccc(NC(=S)N(CCCN2CCCC2)Cc2cccn2Cc2ccc(Cl)cc2)cc1,active: -72%
25,O=[N+]([O-])c1ccc(O)c2ncccc12,active: -98.7%
26,Cc1cccc(-n2c(O)c(C=Nc3cccc(O)c3)c3ccccc3c2=O)n1,inconclusive: -45.2%
27,N#C/C(=C\c1cccs1)C(=O)Nc1nccs1,inactive: -34.4%
28,CC1(C)C(=O)OC(c2cccn2-c2cccc([N+](=O)[O-])c2)C2(CCCCC2)C1=O (stereo not given),inactive: -38.9%

# Structures listed so far that have an aryl thioether with sulfur outside any ring, in the order listed:
row,Compound,"activity change, negative = inhibition"
10,COc1ccc(Cl)cc1NC(=S)NCCSc1ccc(C)cc1,inconclusive: -50.9%
17,COC(=O)c1c(NC(=O)CSc2nnc(-c3ccco3)n2C)sc(C)c1C,inactive: -0.371%

# Following part:

row,Compound,"activity change, negative = inhibition"
1,O=C(NN=C1CCCCCC1)c1ccc(Cl)s1,inconclusive: -54.7%
2,Cc1cc(Nc2ccc([N+](=O)[O-])cc2)nc2ccccc12,inconclusive: -48.6%
3,CN(Cc1ccc(F)cc1)C(=O)c1cccc(S(=O)(=O)NCc2ccccc2)c1,inconclusive: -43.7%
4,CC1CN(Cc2c(O)ccc3c(=O)c(-c4ccccc4)coc23)CC(C)O1 (stereo not given),inconclusive: -41.8%
5,Cc1cccn2c(=O)c(/C=C3\SC(=S)NC3=O)c(NCCCN3CCOCC3)nc12,inconclusive: -41.1%
6,O=C(/C=C/c1ccccc1)NC(N1CCOCC1)C(Cl)(Cl)Cl (stereo not given),inactive: 13.7%
7,CN(/N=C/c1ccc(Br)o1)C1=NS(=O)(=O)c2ccccc21,inactive: -24.6%
8,CC(=O)NCCc1ccc(S(=O)(=O)Nc2ccc3c(c2)OCCO3)cc1,active: -63.6%
9,Cc1c(NC(=O)c2cc3nc(-c4ccc(Br)cc4)cc(C(F)(F)F)n3n2)c(=O)n(-c2ccccc2)n1C,inconclusive: -40.5%
10,O=C(Nc1ccc2ccccc2c1)/C(=C\c1ccc2c(c1)OCO2)NC(=O)c1ccco1,inconclusive: -54%
11,COc1cncc(-c2cnc3sc(NCCc4ccccn4)nn23)c1,active: -64.8%
12,Cc1ccccc1C(=O)N1CCN(c2ccc([N+](=O)[O-])c(NCc3cccnc3)c2)CC1,inconclusive: -43.2%
13,CCc1ccc(N(CC(=O)NC(C)(C)C)C(=O)CNC(=O)c2cccs2)cc1,inconclusive: -56.9%
14,Cc1cccc(NC(=S)NNC(=O)CC(C)O)c1C (stereo not given),inconclusive: -43.2%
15,Cc1ccc(S(=O)(=O)N2[C@H](CC(=O)c3ccccc3)OC[C@@H]2C(C)C)cc1,inconclusive: -40.4%
16,CCN(CC)S(=O)(=O)c1ccc(N2CCOCC2)c(NC(=O)c2ccccc2F)c1,active: -64.6%
17,Cc1c(C(=O)NCc2ccc(Cl)c(Cl)c2)sc(=O)n1Cc1ccc(S(C)(=O)=O)cc1,active: -79.7%
18,CC(C)COc1ccccc1C1CC(=O)Nc2cc3c(cc21)OCO3 (stereo not given),inconclusive: -51.1%
19,Cc1ccc(NC(=O)c2ccc(F)c(S(=O)(=O)N3CCOCC3)c2)cc1F,active: -68.6%
20,COc1ccc(C)cc1NC(=O)c1c([N+](=O)[O-])cnn1C,inconclusive: -41%
21,O=S(=O)(c1ccc2ccccc2c1)N1CCN(C(=S)Nc2ccc(F)c(Cl)c2)CC1,inconclusive: -58.2%
22,CS(=O)(=O)Nc1ccc(C2=NN(C(=O)c3ccco3)C(c3ccco3)C2)cc1 (stereo not given),inactive: 0.206%
23,Cc1ccnc(SCC(=O)c2ccc(Br)s2)n1,inactive: 5.56%
24,COc1ccccc1CNC(=O)Cn1nc(C)c2nn(-c3ccc(Cl)cc3)c(C)c2c1=O,inconclusive: -41.7%
25,Clc1ccccc1Cc1cn2cc(-c3ccccc3)nc2s1,inactive: 76.2%
26,COc1cccc(C(O)c2nc(/C=C/c3ccc(C(F)(F)F)cc3)cs2)c1 (stereo not given),active: -62.2%
27,Cc1ccc(S(=O)(=O)N2CCN(C(=O)CN3CCCC3)C2)cc1,inconclusive: -40.9%

# — PubChem BioAssay AID1259415 (National Center for Advancing Translational Sciences (NCATS), 2018)
